Measurements: article PMC3592802
These are yes or no findings as the source states them, for the method shown. In cells and extracts the contact can be indirect. Some binding calls cover weakened binding; strength is not graded here.

Chains of the proteins cited; added tags and fusions are not shown.
UniProt P70478: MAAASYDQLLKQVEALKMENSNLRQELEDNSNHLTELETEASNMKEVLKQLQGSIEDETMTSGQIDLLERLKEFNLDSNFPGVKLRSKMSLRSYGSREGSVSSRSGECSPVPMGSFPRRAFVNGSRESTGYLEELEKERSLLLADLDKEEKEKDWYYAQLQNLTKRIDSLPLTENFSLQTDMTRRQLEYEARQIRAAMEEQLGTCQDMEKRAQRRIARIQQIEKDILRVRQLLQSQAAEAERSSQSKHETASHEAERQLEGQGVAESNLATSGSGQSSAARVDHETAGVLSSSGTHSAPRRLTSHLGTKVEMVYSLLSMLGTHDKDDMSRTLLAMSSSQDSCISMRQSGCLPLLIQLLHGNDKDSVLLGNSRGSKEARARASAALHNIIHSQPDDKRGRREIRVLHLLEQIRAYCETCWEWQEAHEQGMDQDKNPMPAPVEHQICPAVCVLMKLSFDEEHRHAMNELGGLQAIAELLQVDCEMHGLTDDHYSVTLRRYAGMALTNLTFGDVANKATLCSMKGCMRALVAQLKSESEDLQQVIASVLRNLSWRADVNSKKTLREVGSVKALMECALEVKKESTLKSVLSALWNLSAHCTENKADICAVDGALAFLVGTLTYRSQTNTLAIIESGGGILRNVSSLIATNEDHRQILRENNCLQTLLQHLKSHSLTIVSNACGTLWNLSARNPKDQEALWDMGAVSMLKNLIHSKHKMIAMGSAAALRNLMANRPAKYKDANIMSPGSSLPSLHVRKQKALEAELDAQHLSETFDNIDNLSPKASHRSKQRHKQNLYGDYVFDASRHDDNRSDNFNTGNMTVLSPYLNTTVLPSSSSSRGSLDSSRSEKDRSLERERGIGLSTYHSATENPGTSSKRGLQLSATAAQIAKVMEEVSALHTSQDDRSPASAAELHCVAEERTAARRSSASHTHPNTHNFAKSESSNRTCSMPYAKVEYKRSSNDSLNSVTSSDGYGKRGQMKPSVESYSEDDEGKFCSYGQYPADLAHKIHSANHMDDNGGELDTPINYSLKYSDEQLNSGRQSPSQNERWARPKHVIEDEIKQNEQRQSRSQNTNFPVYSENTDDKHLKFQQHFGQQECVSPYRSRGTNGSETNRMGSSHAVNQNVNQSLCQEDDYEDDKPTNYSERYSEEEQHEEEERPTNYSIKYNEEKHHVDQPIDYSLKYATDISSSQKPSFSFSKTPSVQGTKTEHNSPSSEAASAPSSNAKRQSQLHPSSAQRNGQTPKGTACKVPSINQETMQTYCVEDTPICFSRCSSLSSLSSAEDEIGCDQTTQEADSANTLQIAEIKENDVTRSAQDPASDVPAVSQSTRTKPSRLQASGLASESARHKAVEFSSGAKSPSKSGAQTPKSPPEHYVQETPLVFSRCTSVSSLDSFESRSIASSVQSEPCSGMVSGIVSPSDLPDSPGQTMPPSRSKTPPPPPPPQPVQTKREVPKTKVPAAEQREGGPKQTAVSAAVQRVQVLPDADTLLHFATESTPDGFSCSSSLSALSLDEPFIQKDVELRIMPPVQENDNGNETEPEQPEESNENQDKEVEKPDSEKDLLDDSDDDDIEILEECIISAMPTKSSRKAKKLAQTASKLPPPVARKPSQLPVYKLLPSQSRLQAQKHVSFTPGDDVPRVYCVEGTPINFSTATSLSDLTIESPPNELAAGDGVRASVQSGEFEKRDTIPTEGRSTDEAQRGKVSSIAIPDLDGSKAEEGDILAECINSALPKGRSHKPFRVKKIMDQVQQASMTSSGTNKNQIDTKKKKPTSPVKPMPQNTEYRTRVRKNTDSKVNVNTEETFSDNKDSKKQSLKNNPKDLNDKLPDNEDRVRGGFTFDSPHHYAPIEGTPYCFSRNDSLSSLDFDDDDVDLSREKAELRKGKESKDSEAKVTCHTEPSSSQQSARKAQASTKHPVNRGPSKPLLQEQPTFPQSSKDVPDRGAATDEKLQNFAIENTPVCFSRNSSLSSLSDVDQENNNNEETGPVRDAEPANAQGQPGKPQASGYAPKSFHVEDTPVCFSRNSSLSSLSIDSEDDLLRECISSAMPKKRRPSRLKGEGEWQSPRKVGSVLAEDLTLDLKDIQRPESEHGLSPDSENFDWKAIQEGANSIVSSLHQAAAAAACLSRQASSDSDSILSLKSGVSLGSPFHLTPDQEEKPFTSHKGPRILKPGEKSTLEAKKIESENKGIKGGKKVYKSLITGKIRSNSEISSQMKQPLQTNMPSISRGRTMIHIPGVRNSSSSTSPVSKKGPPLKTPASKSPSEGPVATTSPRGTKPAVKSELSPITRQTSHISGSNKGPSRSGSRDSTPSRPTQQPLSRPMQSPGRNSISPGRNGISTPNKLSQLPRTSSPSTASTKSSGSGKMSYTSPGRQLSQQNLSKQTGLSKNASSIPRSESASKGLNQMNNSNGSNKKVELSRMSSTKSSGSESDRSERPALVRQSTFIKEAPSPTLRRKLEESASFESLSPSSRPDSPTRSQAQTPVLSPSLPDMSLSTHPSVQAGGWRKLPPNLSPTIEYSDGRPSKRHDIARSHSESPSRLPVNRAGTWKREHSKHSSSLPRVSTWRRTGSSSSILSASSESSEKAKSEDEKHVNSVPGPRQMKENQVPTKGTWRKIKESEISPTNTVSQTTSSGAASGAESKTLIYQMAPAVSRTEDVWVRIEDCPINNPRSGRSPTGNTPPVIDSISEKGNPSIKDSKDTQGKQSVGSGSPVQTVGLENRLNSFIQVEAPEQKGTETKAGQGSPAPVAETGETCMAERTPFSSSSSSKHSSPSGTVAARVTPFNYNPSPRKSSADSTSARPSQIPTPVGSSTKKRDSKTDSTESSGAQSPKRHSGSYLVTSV
UniProt P25054: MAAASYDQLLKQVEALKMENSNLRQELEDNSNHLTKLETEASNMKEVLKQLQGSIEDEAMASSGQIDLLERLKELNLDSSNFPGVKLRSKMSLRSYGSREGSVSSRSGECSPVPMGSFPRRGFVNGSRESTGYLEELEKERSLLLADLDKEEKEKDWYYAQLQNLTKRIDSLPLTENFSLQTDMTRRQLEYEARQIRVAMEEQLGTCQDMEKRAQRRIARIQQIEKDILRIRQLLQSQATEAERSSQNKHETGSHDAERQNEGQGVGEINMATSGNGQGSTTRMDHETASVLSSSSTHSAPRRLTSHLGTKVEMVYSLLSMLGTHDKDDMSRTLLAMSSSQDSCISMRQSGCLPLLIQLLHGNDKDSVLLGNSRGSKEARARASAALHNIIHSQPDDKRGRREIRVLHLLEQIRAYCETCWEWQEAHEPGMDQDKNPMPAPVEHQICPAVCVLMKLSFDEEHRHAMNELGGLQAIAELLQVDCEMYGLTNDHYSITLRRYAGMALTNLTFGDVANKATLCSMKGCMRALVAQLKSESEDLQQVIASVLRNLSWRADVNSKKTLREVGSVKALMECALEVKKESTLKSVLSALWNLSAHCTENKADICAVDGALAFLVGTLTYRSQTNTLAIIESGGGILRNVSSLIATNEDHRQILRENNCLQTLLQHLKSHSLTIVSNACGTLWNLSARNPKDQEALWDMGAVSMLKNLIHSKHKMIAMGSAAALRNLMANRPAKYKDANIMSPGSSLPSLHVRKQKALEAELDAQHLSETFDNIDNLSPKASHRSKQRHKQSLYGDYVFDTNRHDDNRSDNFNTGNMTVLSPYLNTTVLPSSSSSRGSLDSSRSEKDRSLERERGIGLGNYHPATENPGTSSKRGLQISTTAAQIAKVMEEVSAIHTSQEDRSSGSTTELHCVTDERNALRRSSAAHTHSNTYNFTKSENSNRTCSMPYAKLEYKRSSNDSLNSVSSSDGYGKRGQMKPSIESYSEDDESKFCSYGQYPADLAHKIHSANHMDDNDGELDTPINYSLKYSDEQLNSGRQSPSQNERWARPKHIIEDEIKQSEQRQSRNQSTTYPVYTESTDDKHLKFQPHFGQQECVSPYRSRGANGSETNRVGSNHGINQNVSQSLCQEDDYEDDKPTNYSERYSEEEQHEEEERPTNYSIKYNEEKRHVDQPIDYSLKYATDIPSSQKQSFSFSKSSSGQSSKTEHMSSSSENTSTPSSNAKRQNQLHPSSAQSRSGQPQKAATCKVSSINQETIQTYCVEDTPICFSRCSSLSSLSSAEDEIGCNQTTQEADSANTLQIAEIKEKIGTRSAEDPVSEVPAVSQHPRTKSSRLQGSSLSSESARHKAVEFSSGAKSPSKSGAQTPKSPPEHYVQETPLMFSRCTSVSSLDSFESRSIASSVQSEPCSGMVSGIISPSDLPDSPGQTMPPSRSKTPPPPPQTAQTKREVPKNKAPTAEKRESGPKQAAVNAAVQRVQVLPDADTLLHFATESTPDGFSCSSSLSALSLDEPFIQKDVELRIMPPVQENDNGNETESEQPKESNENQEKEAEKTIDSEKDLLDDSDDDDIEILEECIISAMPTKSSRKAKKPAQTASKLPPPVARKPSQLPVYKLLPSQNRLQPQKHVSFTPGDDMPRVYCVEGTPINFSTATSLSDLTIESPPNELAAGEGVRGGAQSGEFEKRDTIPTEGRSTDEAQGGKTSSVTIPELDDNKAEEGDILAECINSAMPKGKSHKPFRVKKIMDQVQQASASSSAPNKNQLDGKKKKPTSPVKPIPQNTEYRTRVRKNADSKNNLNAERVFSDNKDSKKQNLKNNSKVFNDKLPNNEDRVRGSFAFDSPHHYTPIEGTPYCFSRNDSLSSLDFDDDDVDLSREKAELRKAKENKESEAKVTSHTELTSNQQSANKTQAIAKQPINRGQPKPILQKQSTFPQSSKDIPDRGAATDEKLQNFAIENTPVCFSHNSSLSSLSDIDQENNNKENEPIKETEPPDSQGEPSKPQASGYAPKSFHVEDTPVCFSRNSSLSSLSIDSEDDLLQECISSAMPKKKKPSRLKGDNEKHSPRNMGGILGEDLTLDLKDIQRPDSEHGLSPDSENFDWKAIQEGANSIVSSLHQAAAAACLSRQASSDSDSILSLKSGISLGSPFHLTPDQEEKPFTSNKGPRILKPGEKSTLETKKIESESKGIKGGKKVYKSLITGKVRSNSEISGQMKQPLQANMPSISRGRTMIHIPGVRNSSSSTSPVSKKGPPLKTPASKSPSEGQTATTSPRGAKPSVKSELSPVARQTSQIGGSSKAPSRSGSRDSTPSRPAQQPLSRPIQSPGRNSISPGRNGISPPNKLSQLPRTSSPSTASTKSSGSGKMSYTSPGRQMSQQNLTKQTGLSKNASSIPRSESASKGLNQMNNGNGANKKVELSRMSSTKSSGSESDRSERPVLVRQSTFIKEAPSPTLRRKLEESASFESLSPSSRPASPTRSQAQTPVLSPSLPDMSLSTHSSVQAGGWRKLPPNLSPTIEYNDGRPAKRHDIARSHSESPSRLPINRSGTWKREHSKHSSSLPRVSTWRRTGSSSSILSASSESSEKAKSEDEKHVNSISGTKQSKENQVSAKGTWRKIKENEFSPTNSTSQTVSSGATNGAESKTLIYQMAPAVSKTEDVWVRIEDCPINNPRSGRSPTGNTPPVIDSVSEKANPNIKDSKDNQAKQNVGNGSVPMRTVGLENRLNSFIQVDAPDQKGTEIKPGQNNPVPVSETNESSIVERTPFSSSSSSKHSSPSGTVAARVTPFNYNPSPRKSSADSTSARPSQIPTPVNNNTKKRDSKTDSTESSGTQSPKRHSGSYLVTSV
UniProt Q02156: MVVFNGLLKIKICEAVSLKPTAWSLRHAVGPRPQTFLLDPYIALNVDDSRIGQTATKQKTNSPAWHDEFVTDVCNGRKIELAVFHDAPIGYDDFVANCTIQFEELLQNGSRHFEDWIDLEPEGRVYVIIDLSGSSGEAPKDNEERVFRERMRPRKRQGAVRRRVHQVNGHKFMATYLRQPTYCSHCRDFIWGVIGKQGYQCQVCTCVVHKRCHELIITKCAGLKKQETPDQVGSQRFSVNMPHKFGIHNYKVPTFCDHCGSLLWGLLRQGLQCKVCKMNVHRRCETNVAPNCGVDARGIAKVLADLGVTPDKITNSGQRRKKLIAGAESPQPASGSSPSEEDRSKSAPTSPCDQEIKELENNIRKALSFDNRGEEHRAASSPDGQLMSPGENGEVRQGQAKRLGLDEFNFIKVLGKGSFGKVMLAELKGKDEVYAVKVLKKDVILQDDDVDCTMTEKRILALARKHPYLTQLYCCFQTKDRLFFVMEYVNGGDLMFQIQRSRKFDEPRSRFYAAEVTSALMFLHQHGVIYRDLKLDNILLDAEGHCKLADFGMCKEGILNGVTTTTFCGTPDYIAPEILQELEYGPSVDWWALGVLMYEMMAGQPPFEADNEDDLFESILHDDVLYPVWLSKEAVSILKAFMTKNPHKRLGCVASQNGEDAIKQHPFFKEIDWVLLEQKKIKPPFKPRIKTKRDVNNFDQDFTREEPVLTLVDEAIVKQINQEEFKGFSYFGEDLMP

What was measured:
Assay in all cases: co-IP; endogenous proteins from total cell extracts (lysis: 50 mM Tris, 150 mM NaCl, 0.5% Triton X-100, pH 7.5; 1 mg/ml extract); 2 µg/ml primary antibody overnight at 4°C, protein A-sepharose 2 h; washes with 0.6 M NaCl pH 8.3 and 0.15 M NaCl pH 7.5; Western blot of the precipitates
[1] = target: Protein kinase C delta (PKCδ) from IEC-18 cells (rat (endogenous in IEC-18)) (UniProt P09215)
[2] = target: Adenomatous polyposis coli (APC) protein, normal, from IEC-18 cells (rat (endogenous in IEC-18)) (UniProt P70478)
[3] = target: Adenomatous polyposis coli (APC) protein, wild type, from RKO cells (human (endogenous in RKO)) (UniProt P25054)

binding [2]	binding [3]	Substance	also measured
–	–	Adenomatous polyposis coli (APC) protein, normal, from IEC-18 cells (from UniProt P70478 1-2842)	binding [1]: binds
binds	–	Protein kinase C delta (PKCδ) from IEC-18 cells (from UniProt P09215 1-673) (enzyme)	–
–	binds	Protein kinase C delta (PKCδ) from human colon tumor cell lines (from UniProt Q05655 1-676) (enzyme)	–
no binding	–	Protein kinase C epsilon (PKCε) from IEC-18 cells (from UniProt P09216 1-737) (enzyme)	–
–	no binding	Protein kinase C epsilon (PKCε) from human colon tumor cell lines (from UniProt Q02156 1-737) (enzyme)	–
